The list shows only some results of the screen, not a fair sample: it is rich in T/C values a quarter to a half above the control, in often repeated tests (any T/C) and in doses without a T/C. Further doses and runs are listed elsewhere. T/C is the treated group as % of the vehicle group. Some entries give survivors of the animals treated and no T/C: the source holds a T/C of zero for them, seemingly a mark for toxic or unscored doses. Some survivor counts are full or nearly so, which does not show that the dose was tolerated: the source hardly ever lists a survival T/C far under the control, and the zero likely stands for such cases as well. Counts of survivors are from the toxicity check (mostly the fifth day) where no day follows; animals may have died later. Schedule codes are those of the source, taken here to give the interval after Q, in days (D) or hours (H), and the number of doses after X. Some doses were run more than once; the values are given in rising order. Where survival is the endpoint, the PubChem record calls one and a half times the control and up active, and a quarter to a half above the control has no call in these data; cut-offs in other NCI protocols can differ. Brackets with × say how often a value occurs here. Some T/C values are followed by the survivors on the day toxicity was checked, most often the fifth; where none is given, no animal had died by that day.

This experiment relates to CD2F1 mice, L1210 leukemia ip, survival T/C. Kind of experiment: NCI In Vivo Anticancer Drug Screen. Data for tumor model L1210 Leukemia (intraperitoneal) in CD2F1 (CDF1) mice. To be noted: higher T/C = longer survival. The gist of the method:
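Each value reflects a quotient of treated over vehicle control outcomes in mice with a transplanted tumor.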

Setting [1] is: T/C endpoint: mean survival time, dose: 100.0 mg/kg/injection, schedule: Q04DX003 (ip), vehicle: saline with Tween-80.
[2] abbreviates: T/C endpoint: mean survival time, dose: 75.0 mg/kg/injection, schedule: Q01DX009 (ip), vehicle: Klucel (hydroxypropylcellulose) (HPC).
[3] abbreviates: T/C endpoint: mean survival time, dose: 150.0 mg/kg/injection, schedule: Q01DX009 (ip), vehicle: Klucel (hydroxypropylcellulose) (HPC).
Setting [4] is: T/C endpoint: mean survival time, dose: 200.0 mg/kg/injection, schedule: Q01DX009 (ip), vehicle: saline with Tween-80.
[5] abbreviates: T/C endpoint: mean survival time, dose: 400.0 mg/kg/injection, schedule: Q04DX003 (ip), vehicle: saline with Tween-80.
The mark [6] stands for this setting: T/C endpoint: median survival time, dose: 120.0 mg/kg/injection, schedule: Q03HX009 (ip), vehicle: saline.
Where [7] appears, read: T/C endpoint: mean survival time, dose: 200.0 mg/kg/injection, schedule: Q04DX003 (ip), vehicle: saline with Tween-80.
Setting [8] is: T/C endpoint: mean survival time, dose: 200.0 mg/kg/injection, schedule: Q04DX002 (ip), vehicle: saline with Tween-80.
Where [9] appears, read: T/C endpoint: mean survival time, dose: 400.0 mg/kg/injection, schedule: Q04DX002 (ip), vehicle: saline with Tween-80.

As for `CC(C)(C)OC(=O)NOC(=O)C(C)(C)C`, under setting [1], the survivor count was 6 of 6.

Take `CN(C)N=Nc1c(Cl)cccc1Cl`: the T/C under setting [2] was 125 and 147 % of control; the T/C under setting [3] was 142 % of control [5 of 6 alive].

As to `CN(Cc1ccc([N+](=O)[O-])cc1)N=Nc1ccc(C(=O)O)cc1`, the survivor count (T/C endpoint: mean survival time, dose: 400.0 mg/kg/injection, schedule: Q01DX009 (ip), vehicle: other) is 1 of 3.

For the compound `CN1C2CCC1CC(OC(=O)c1ccc(O)cc1)C2` (centres undefined), the survivor count is 2 of 6 (T/C endpoint: mean survival time, dose: 75.0 mg/kg/injection, schedule: Q01DX001 (ip), vehicle: saline); 0 of 6 (T/C endpoint: mean survival time, dose: 150.0 mg/kg/injection, schedule: Q01DX001 (ip), vehicle: saline); 0 of 6 (T/C endpoint: mean survival time, dose: 300.0 mg/kg/injection, schedule: Q01DX001 (ip), vehicle: saline).

For the compound `NS(=O)(=O)c1cc(Cl)cc(Cl)c1O`, the survivor count under setting [1] is 6 of 6.

`CNNCc1ccc(/C=N/NC(N)=S)cc1`: the survivor count is, setting by setting: (T/C endpoint: mean survival time, dose: 25.0 mg/kg/injection, schedule: Q01DX009 (ip), vehicle: water) 6 of 6; (T/C endpoint: mean survival time, dose: 200.0 mg/kg/injection, schedule: Q01DX009 (ip), vehicle: water) 6 of 6; (T/C endpoint: mean survival time, dose: 400.0 mg/kg/injection, schedule: Q01DX009 (ip), vehicle: water) 3 of 6.

`N#Cc1cc([N+](=O)[O-])ccc1Cl`: the survivor count runs as follows: under setting [4], 3 of 6; under setting [5], 2 of 6.

On to `O=[N+]([O-])c1cccc(N=Nn2cccc2)c1`, for which the survivor count is, setting by setting: (T/C endpoint: mean survival time, dose: 200.0 mg/kg/injection, schedule: Q01DX001 (ip), vehicle: saline with Tween-80) 3 of 6; (T/C endpoint: mean survival time, dose: 400.0 mg/kg/injection, schedule: Q01DX001 (ip), vehicle: saline with Tween-80) 0 of 6.

Regarding `CN(CC#N)N=Nc1ccc(C(N)=O)cc1`, the survivor count is reported as 3 of 6 under setting [2]; 0 of 6 under setting [3]; 0 of 6 (T/C endpoint: mean survival time, dose: 300.0 mg/kg/injection, schedule: Q01DX009 (ip), vehicle: Klucel (hydroxypropylcellulose) (HPC)).

As to `Nc1nc(Br)nc2c1ncn2C1CC(O)C(CO)O1` (centres undefined), the T/C by setting is: (T/C endpoint: median survival time, dose: 3.75 mg/kg/injection, schedule: Q03HX009 (ip), vehicle: water) 133 % of control; (T/C endpoint: median survival time, dose: 7.5 mg/kg/injection, schedule: Q03HX009 (ip), vehicle: saline) 132 (3×) and 134 % of control; (T/C endpoint: median survival time, dose: 7.5 mg/kg/injection, schedule: Q03HX009 (ip), vehicle: suspension in saline) 131 % of control (2×); (T/C endpoint: median survival time, dose: 7.5 mg/kg/injection, schedule: Q03HX009 (ip), vehicle: water) 141 % of control; (T/C endpoint: median survival time, dose: 15.0 mg/kg/injection, schedule: Q03HX009 (ip), vehicle: saline) 139, 150, 168 (2×), 214 % of control; (T/C endpoint: median survival time, dose: 15.0 mg/kg/injection, schedule: Q03HX009 (ip), vehicle: suspension in saline) 147 % of control (2×). Moreover, the T/C by setting is: (T/C endpoint: median survival time, dose: 15.0 mg/kg/injection, schedule: Q03HX024 (ip), vehicle: saline) 144 % of control; (T/C endpoint: median survival time, dose: 30.0 mg/kg/injection, schedule: Q03HX009 (ip), vehicle: saline) 188, 192, 204, 216 % of control (2×); (T/C endpoint: median survival time, dose: 60.0 mg/kg/injection, schedule: Q03HX009 (ip), vehicle: saline) 180 (2×), 181, 208 % of control; under setting [6], 87 [4 of 6 alive on day 4] (2×) and 90 % of control. Further, the survivor count is, setting by setting: under setting [6], 3 of 6; (T/C endpoint: median survival time, dose: 180.0 mg/kg/injection, schedule: Q03DX003 (ip), vehicle: saline) 3 of 6.

On to `Cc1ccccc1-[n+]1nc(-c2ccccc2)nn1-c1ccccc1`, for which the survivor count is on record as 2 of 6 (T/C endpoint: mean survival time, dose: 2.5 mg/kg/injection, schedule: Q01DX009 (ip), vehicle: saline sonified); 2 of 6 (T/C endpoint: mean survival time, dose: 5.0 mg/kg/injection, schedule: Q01DX009 (ip), vehicle: saline sonified); 0 of 6 (T/C endpoint: mean survival time, dose: 10.0 mg/kg/injection, schedule: Q04DX003 (ip), vehicle: saline with Tween-80); 0 of 6 (T/C endpoint: mean survival time, dose: 20.0 mg/kg/injection, schedule: Q04DX003 (ip), vehicle: saline with Tween-80); 0 of 6 under setting [1]; 0 of 6 under setting [7]. Further, the survivor count under setting [5] is listed as 0 of 6.

For `O=C1N(c2ccccc2)CCS1(=O)=O`, the survivor count is on record as 0 of 6 (T/C endpoint: mean survival time, dose: 75.0 mg/kg/injection, schedule: Q01DX001 (ip), vehicle: other); 0 of 6 (T/C endpoint: mean survival time, dose: 150.0 mg/kg/injection, schedule: Q01DX001 (ip), vehicle: other); 0 of 6 (T/C endpoint: mean survival time, dose: 300.0 mg/kg/injection, schedule: Q01DX001 (ip), vehicle: other).

Consider `CS(=O)(=O)OCCN(CCOS(C)(=O)=O)c1cccc(Cl)c1`, for which the T/C by setting is: (T/C endpoint: mean survival time, dose: 16.0 mg/kg/injection, schedule: Q01DX010 (ip), vehicle: saline) 148 % of control; (T/C endpoint: mean survival time, dose: 16.0 mg/kg/injection, schedule: Q01DX015 (ip), vehicle: saline) 128 % of control. Moreover, under “T/C endpoint: mean survival time, dose: 32.0 mg/kg/injection, schedule: Q01DX015 (ip), vehicle: saline”, the survivor count is 6 of 6.

Turning to `Cc1c([N+](=O)[O-])cc(C(C)(C)C)c(OS(C)(=O)=O)c1[N+](=O)[O-]`, the survivor count is, setting by setting: under setting [8], 3 of 3; under setting [9], 3 of 3.

On to `CCCCCCCCCCC[n+]1ccc(C(N)=O)cc1`, for which the survivor count is on record as 1 of 6 under setting [1], 0 of 6 under setting [7] and 0 of 6 under setting [5].

On to `Nc1ncnc2oc(-c3ccccc3)c(-c3ccccc3)c12`, for which the survivor count is 3 of 3 (T/C endpoint: mean survival time, dose: 100.0 mg/kg/injection, schedule: Q04DX002 (ip), vehicle: saline with Tween-80); 3 of 3 under setting [8]; 3 of 3 under setting [9].

`CC1(C)N=C(N)N=C(N)N1c1cccc(CC(=O)Nc2ccc(S(=O)(=O)F)cc2)c1`: the T/C is, setting by setting: (T/C endpoint: mean survival time, dose: 200.0 mg/kg/injection, schedule: Q01DX009 (ip), vehicle: saline) 125 % of control; (T/C endpoint: mean survival time, dose: 400.0 mg/kg/injection, schedule: Q01DX009 (ip), vehicle: saline) 129 % of control [5 of 6 alive].

In the case of `C/C=C/C=C/c1cc2cc3c(c(O)c2c(=O)[nH]1)C1(CC3)C(O)=c2c(=O)c3c(=O)cc(OC)c(=O)c=3c(=O)c2=C1O` (centres undefined), the survivor count runs as follows: (T/C endpoint: mean survival time, dose: 0.01 mg/kg/injection, schedule: Q01DX009 (ip), vehicle: DMSO) 6 of 6; (T/C endpoint: mean survival time, dose: 0.03 mg/kg/injection, schedule: Q01DX009 (ip), vehicle: DMSO) 6 of 6; (T/C endpoint: mean survival time, dose: 0.12 mg/kg/injection, schedule: Q01DX009 (ip), vehicle: DMSO) 3 of 6; (T/C endpoint: mean survival time, dose: 0.25 mg/kg/injection, schedule: Q01DX009 (ip), vehicle: DMSO) 3 of 6; (T/C endpoint: mean survival time, dose: 0.5 mg/kg/injection, schedule: Q01DX009 (ip), vehicle: DMSO) 0 of 6; (T/C endpoint: mean survival time, dose: 1.0 mg/kg/injection, schedule: Q01DX009 (ip), vehicle: DMSO) 0 of 6 and 9 of 10. In addition, the survivor count (T/C endpoint: mean survival time, dose: 2.0 mg/kg/injection, schedule: Q01DX009 (ip), vehicle: DMSO) was 0 of 6 and 2 of 10; the survivor count (T/C endpoint: median survival time, dose: 0.06 mg/kg/injection, schedule: Q01DX009 (ip), vehicle: DMSO) is reported as 1 of 6; the survivor count (T/C endpoint: median survival time, dose: 0.12 mg/kg/injection, schedule: Q01DX009 (ip), vehicle: DMSO) was 5 of 6.

As to `O=[N+]([O-])C=C(S)S`, for the setting “T/C endpoint: mean survival time, dose: 400.0 mg/kg/injection, schedule: Q01DX009 (ip), vehicle: Klucel (hydroxypropylcellulose) (HPC)”, the survivor count is given as 1 of 6.

In the case of `COc1ccc(-c2[nH]c(=S)[nH]c(=O)c2CCO)cc1`, under setting [4], the survivor count was 6 of 6.

The values above are taken from PubChem BioAssay AID256 (DTP/NCI, 2004).
